Test results published in US20260317388A1, “SELECTIVE NUCLEAR BLOCKADE FOR THE TREATMENT OF SEPSIS” (priority 2023, published 2026).
Part of at least one peptide drawing is inferred or uncertain, most often the ends. Positions of bridges follow the written chain, without caps; N, C: chain ends. Residues, ends and D or L forms follow the SMILES beside them.

Tests used:
[1] = system: Kidneys (genes responding to sepsis); test: Next-Generation Sequencing (NGS) of gene expression in kidneys of CM-challenged mice treated with NTCI; type: in vivo, C57Bl/6J mice; conditions: kidneys of infected mice
sepsis = conditions: cited from earlier work
[2] = system: Lungs (genes responding to sepsis); test: Next-Generation Sequencing (NGS) of gene expression in lungs of CM-challenged mice treated with NTCI; type: in vivo, C57Bl/6J mice

CSCC[C@@H]1NC(=O)[C@H](CC(C)C)NC(=O)[C@H](CCCCN)NC(=O)[C@H](CCC(N)=O)NC(=O)[C@H](CCCNC(=N)N)NC(=O)[C@H](CCCCN)NC(=O)[C@H](CCCNC(=N)N)NC(=O)[C@H](CCC(N)=O)NC(=O)[C@H](C(C)C)NC(=O)[C@@H](NC(=O)[C@@H]2CCCN2C(=O)[C@H](C)NC(=O)[C@H](CC(C)C)NC(=O)[C@H](CC(C)C)NC(=O)[C@H](C)NC(=O)[C@H](CC(C)C)NC(=O)[C@H](CC(C)C)NC(=O)[C@@H](NC(=O)[C@H](C)NC(=O)[C@@H]2CCCN2C(=O)[C@H](CC(C)C)NC(=O)[C@H](CC(C)C)NC(=O)[C@H](C)NC(=O)[C@@H](NC(=O)[C@H](C)NC(=O)[C@H](C)N)C(C)C)C(C)C)CSSC[C@@H](C(=O)O)NC(=O)[C@@H]2CCCN2C1=O [cSN50.1] (H-AAVALLPAVLLALLAPCVQRKRQKLMPC-OH; disulfide 17-28)
Prg4 gene expression ([1]; Saline 10): 5 fold | Gm33424 gene expression ([1]; Saline 14): 55 fold | survival with NTCI combined with antimicrobial therapy (meropenem) (sepsis): 55% | Ndp gene expression ([2]; lungs of infected mice, NTCI, Saline −9): −5 fold | Wnt7a gene expression ([2]; lungs of infected mice, NTCI, Saline −10): −15 fold | genes decreased by NTCI in the pool of genes increased by sepsis, lungs ([2]; lungs, infected animals, 6 h): 889 genes
